Measured values published in PubChem BioAssay AID1471 (National Center for Advancing Translational Sciences (NCATS), 2008).
Values joined by “and” are separate entries in the source; they are usually repeats but may differ in a detail not shown here. Equal entries are not always repeated. Out of some 230,000 compounds screened, about 310 (0.13%) were called active. Another 2% or so got no clear call; they are omitted. Calls come from the whole dose curve; as a rule, active = well fitted activation curve with a large enough effect; inconclusive = small, poorly fitted or top-dose-only effect; inactive = no such curve, though single readings can be large or run the other way. Only a part is listed here, and it is no random draw. Entries without a call were filed so in the source. More than one record can exist for a structure, and the calls need not agree.
Potency is the fitted concentration of half-maximal effect.

Assay: qHTS Multiplex Assay to Identify Dual Action Probes in a Cell Model of Huntington: Cytoprotection (ATP); note: nearly all actives have a fitted effect of over 45% in size;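 for cytoprotection (ATP increase): toxic huntingtin expression switched on by the ecdysone agonist tebufenozide; % of control where 0% means no effect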
Conditions: PC12 HTT-Q103 induced, ATP luminescence, 40 h; cytoprotection (ATP increase): at 56.4 µM (top of the series) unless noted
Method in brief: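 Compounds were screened for protection of PC12 cells against cell death after tebufenozide induction (100 nM final) of mutant Huntingtin exon 1 (Q103) fused to GFP.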
In the case of `Cc1ccc(C2NCCS2)cc1` (centres undefined), the cytoprotection (ATP increase) was 43.6%. For `CCCCCCCC/C=C\CCCCCCCC(N)=O`, the cytoprotection (ATP increase) was -32.7%. In the case of `O=C(/C=C/c1ccc(O)cc1)c1ccc(O)cc1O`, the cytoprotection (ATP increase) was 31.3%. `Cc1cccc(C2=NN(c3ccccc3)[C@@H](C(=O)N3CCOC3=O)[C@@H]2c2ccc(Cl)cc2)c1` gave a cytoprotection (ATP increase) of -105%. `Cc1ccc2[nH]c(O)c(N=NC(=O)CCc3ccccc3)c2c1Br` showed a cytoprotection (ATP increase) of 319% [at 1.9 µM]. For `C[C@@H]1CNCCN1S(=O)(=O)c1cccc2cnccc12`, the Potency was active: 12.6 µM. Work on `Cc1sc2ncnc(OCC(=O)N3CCN(S(=O)(=O)c4ccccc4)CC3)c2c1C` yielded a cytoprotection (ATP increase) of 319% [at 10 µM]. Molecule `COc1cccc(-c2cc(=O)c3cc(NC(=O)c4ccccc4)ccc3[nH]2)c1` has a cytoprotection (ATP increase) of -177%. For `CCCCC/C=C/C=C1/C(=O)C=C[C@@H]1C/C=C\CCCC(=O)O`, the cytoprotection (ATP increase) was 48.8% and -91.3%. With `COc1ccc(NC(=S)NCCc2ccc(S(N)(=O)=O)cc2)c(OC)c1` the cytoprotection (ATP increase) was -15.9%. Work on `Nc1c2ccccc2nc2ccccc12` yielded a cytoprotection (ATP increase) of -272%. Molecule `CCC[C@H](N[C@@H](C)C(=O)N1[C@@H]2CCCC[C@H]2C[C@H]1C(=O)O)C(=O)OCC` has a cytoprotection (ATP increase) of 31.1%. `COc1ccc2c(c1)O[C@H](c1ccc3c(c1)OCO3)[C@@H](OC(=O)NS(=O)(=O)c1ccc(C)cc1)C2=O` gave a cytoprotection (ATP increase) of -35.5%. In the case of `CN(C(=O)c1cccs1)c1ccc(OCC(=O)Nc2ccc(C(=O)O)cc2)cc1`, the Potency was active: 0.891 µM. `COc1ccccc1-c1ccc(C(=O)O)o1` gave a cytoprotection (ATP increase) of -52% [at 96.6 µM]. For `O=C(CN1CCCCC1)N1CCCc2c1c(=O)oc1ccc(OCc3ccccc3)cc21`, the Potency was active: 3.16 µM. With `CNC1C(O)C2OC3OC(C)CC(=O)[C@@]3(O)O[C@H]2[C@H](NC)C1O` (some centres undefined) the cytoprotection (ATP increase) was -53%. For `CC(C)C(=O)N(c1ccc2oc(=O)sc2c1)S(=O)(=O)c1cccs1`, the Potency was active: 12.6 µM. For `Cc1nnc2sc(SCc3ccc(Cl)cc3)nn2c1=O`, the cytoprotection (ATP increase) was 195% [at 10 µM]. Molecule `Cc1cc2oc(=O)cc(-c3ccccc3)c2c(C)c1-c1ccoc1` has a cytoprotection (ATP increase) of -64.9%. Work on `O=c1cc(-c2ccccc2)oc2cc(O)cc(O)c12` yielded a cytoprotection (ATP increase) of -93.8%. With `O=C(CCCCCN1C(=O)c2cccc3cccc(c23)C1=O)NO` the cytoprotection (ATP increase) was -107%. In the case of `CC(C)(C)N1C(=O)[C@@H]2[C@H]3C(=CC[C@H]2C1=O)C(=O)[C@H]1O[C@H]1[C@H]3O`, the Potency was active: 5.62 µM. Work on `COC(=O)c1sccc1NC(=O)Cc1ccc(OC)cc1` yielded a cytoprotection (ATP increase) of 330% [at 10 µM]. With `N#CC1=C(SCc2ccccc2)NC(=O)CC1c1ccccc1` (centres undefined) the cytoprotection (ATP increase) was 314% [at 10 µM]. In the case of `Cn1cc(C=C2C(=O)CC(C)(C)CC2=O)c2ccccc21`, the cytoprotection (ATP increase) was 94.2% [at 10 µM]. `COc1cc2oc(=O)cc(-c3cccc(-c4ccc(C(F)(F)F)cc4)c3)c2c(OC)c1OC` showed a cytoprotection (ATP increase) of -0.225%. With `CCc1cccc(CC)c1NC(=O)c1ccccc1CCc1ccccc1` the cytoprotection (ATP increase) was 331% [at 10 µM]. In the case of `COC(=O)[C@H](COC(C)(C)C)NC(=O)O[C@@H]1C(=O)c2ccc(OC)cc2O[C@H]1c1ccc2c(c1)OCO2`, the cytoprotection (ATP increase) was -36.6%. In the case of `CC(C)OC(=O)[C@@H]1CC[C@H](C)[C@@H](CCCCO)O1`, the cytoprotection (ATP increase) was 51.8%. `COC(=O)C1(C(=O)OC)C[C@H]2CON=C2[C@H]1c1ccccc1` showed a cytoprotection (ATP increase) of 17.2%. With `C=CCOc1cccc(C2C(C(=O)c3ccc(C)o3)=C(O)C(=O)N2c2nccs2)c1` (centres undefined) the cytoprotection (ATP increase) was 158%. With `N[C@@H](Cc1cc(CP(=O)(O)O)cc(-c2ccccc2Cl)c1)C(=O)O` the Potency was active: 31.6 µM. For `COc1cc(-c2nc(S(=O)(=O)c3ccc(C)cc3)c(N(C)C)o2)cc(OC)c1OC`, the Potency was active: 0.891 µM. Work on `CCOC(=O)C1(C(C)C)Oc2ccccc2C(c2ccc(OC)cc2)=C1C(=O)OC` (centres undefined) yielded a cytoprotection (ATP increase) of -35.6%. `COc1nccnc1NS(=O)(=O)c1ccc(N=Cc2c(C)[nH]n(-c3ccc(Cl)cc3)c2=O)cc1` gave a cytoprotection (ATP increase) of 185% [at 10 µM]. `Cc1cc(C)c2nc3nc(C)cc(C)c3c(N)c2c1` gave a cytoprotection (ATP increase) of 194% [at 10 µM]. Molecule `CNCCCC12CCC(c3ccccc31)c1ccccc12` has a cytoprotection (ATP increase) of -49.5%. `Oc1cc2c(cc1O)CN(C(=S)NCCc1ccc(Cl)cc1)CCC2` gave a cytoprotection (ATP increase) of 104%. Work on `CCCCCCC(=O)OC1CC(C)(C)NC(C)(C)C1` yielded a cytoprotection (ATP increase) of -8.03%. For `S=C(Nc1ccc(Br)cc1)NC1CCCCC1`, the cytoprotection (ATP increase) was 224% [at 0.074 µM]. With `CCOC(=O)c1sc2nc(N3CCOCC3)c3c(c2c1N)CCN(C)C3` the Potency was active: 0.631 µM. With `COc1ccc(NC(=O)Nc2nc(C)cc(C)n2)c(OC)c1` the cytoprotection (ATP increase) was 379% [at 10 µM]. With `CC1(C)Cc2c(c(=S)nc(-c3ccccc3)n2CCO)CO1` the Potency was active: 20 µM. With `Oc1ccc(C(c2nnnn2C2CCCCC2)N2CCOCC2)cc1` (centres undefined) the cytoprotection (ATP increase) was 313% [at 10 µM]. With `O=C(CSc1c2c(nc3cc(Cl)ccc13)CCCC2)NCc1ccco1` the Potency was active: 12.6 µM. With `COc1ccc2[nH]c(-c3ccccc3)c(CCNC(C)=O)c2c1` the cytoprotection (ATP increase) was -36.5%. For `CCCCC/C=C\C/C=C\CCCCCCCCCC(=O)O`, the cytoprotection (ATP increase) was -4.22%. `CC(CCC(=O)O)C1CCC2C3CC[C@H]4CC(O)CC[C@@]4(C)C3CC(O)[C@]12C` (some centres undefined) showed a cytoprotection (ATP increase) of 20.6%. In the case of `O=C(Nc1ccccc1)c1ccc(Br)o1`, the cytoprotection (ATP increase) was -58.2% [at 96.6 µM]. `CC1CCN(C(=O)/C=C/c2ccc(C(C)(C)C)cc2)CC1` showed a cytoprotection (ATP increase) of 156% [at 0.074 µM]. Work on `CCN1C(=O)C(CC(=O)Nc2ccc(OC)cc2)N(Cc2cccnc2)C1=S` (centres undefined) yielded a cytoprotection (ATP increase) of 108%. In the case of `Cc1nn(C)c(C)c1/C=C/C(=O)O`, the Potency was active: 11.2 µM. For `O=C(c1cc(-c2cccs2)on1)N1CCCc2ccccc21`, the cytoprotection (ATP increase) was 385% [at 10 µM]. With `O=C(NC1C/C(=N/O)c2cc3c(cc21)OCO3)C(F)(F)F` (centres undefined) the Potency was active: 3.98 µM. With `Cc1nn(C)c2nc(NNC(=O)Nc3cc(Cl)nc(Cl)c3)cc(C(C)C)c12` the cytoprotection (ATP increase) was -28.6%. With `O=c1[nH]cc(F)c(=O)[nH]1` the cytoprotection (ATP increase) was -133%. Work on `CCCCC[C@H](O)/C=C/[C@@H]1[C@@H](C/C=C\CCCC(=O)O)[C@H]2CO[C@@H]1C2` yielded a cytoprotection (ATP increase) of -9.61%. Work on `Cc1cn(C2CC(N=[N+]=[N-])C(CO)O2)c(=O)[nH]c1=O` (centres undefined) yielded a cytoprotection (ATP increase) of -39.3%. Molecule `OC[C@@H]1[C@@H](c2ccc(Cl)cc2)C(c2cccc(Cl)c2)=NN1c1ccccc1` has a cytoprotection (ATP increase) of -57.1%. Molecule `O=C(N/N=C/c1ccco1)C1CC1(c1ccccc1)c1ccccc1` (centres undefined) has a cytoprotection (ATP increase) of 298% [at 10 µM]. Molecule `Cc1ccc(S(=O)(=O)N2CCC(=O)N(CCOC(=O)Nc3ccc(C)c(C)c3)CC2)cc1` has a cytoprotection (ATP increase) of 1.18%. For `Cc1cc(-c2ccccc2)nc(N/N=C/c2ccc([N+](=O)[O-])cc2)n1`, the cytoprotection (ATP increase) was 209% [at 10 µM]. In the case of `CN(C)Cc1cc(C(C)(C)c2cc(CN(C)C)c(O)c(CN(C)C)c2)cc(CN(C)C)c1O`, the cytoprotection (ATP increase) was 374% [at 10 µM]. Work on `CC[C@@H]1C(c2ccccc2)=NN(c2ccccc2)[C@H]1C(=O)N1CCOC1=O` yielded a cytoprotection (ATP increase) of -65.2%. In the case of `CN1CCc2cccc3c2C1Cc1ccc(O)c(O)c1-3` (centres undefined), the cytoprotection (ATP increase) was 25.3%. `N#CCCn1cc(C(=O)Nc2ccc(C(=O)O)cc2)c(-c2cccs2)n1` showed a cytoprotection (ATP increase) of 299% [at 10 µM]. `CN(C)S(=O)(=O)c1ccc(/C(O)=C2/C(=O)C(=O)N(Cc3cccnc3)C2c2cccs2)cc1` (centres undefined) showed a cytoprotection (ATP increase) of 225% [at 10 µM]. For `N#Cc1cc2c(N)c(C(=O)Nc3ccccc3)sc2nc1N`, the cytoprotection (ATP increase) was 280% [at 10 µM]. For `CCOC(=O)C1C(C(=O)OC)=C(c2ccc(OC)cc2)c2ccccc2N1S(=O)(=O)C(F)(F)F` (centres undefined), the cytoprotection (ATP increase) was -12.1%. Molecule `Cn1c(SCC(=O)N/N=C/C=C/c2ccco2)nc2ccccc21` has a cytoprotection (ATP increase) of 147% [at 10 µM]. In the case of `Cn1cc(C2=C(c3ccc(Cl)cc3Cl)C(=O)NC2=O)c2ccccc21`, the Potency was active: 31.6 µM. For `Clc1cccc(NCc2nnc3n2CCCCC3)c1`, the Potency was active: 3.98 µM. For `C=CCc1cccc(C=Nc2ccc(Br)cc2)c1O`, the cytoprotection (ATP increase) was 40.2%. For `Oc1ccc(O)cc1`, the Potency was active: 31.6 µM. `OC[C@@H]1[C@@H](c2ccc(Cl)cc2)C(c2ccc(F)cc2)=NN1c1ccccc1` showed a cytoprotection (ATP increase) of -194%. With `Cc1nnc2n1N=CC=C(c1ccccc1)S2` the Potency was active: 15.8 µM. Molecule `O=C1C[C@H]2CCCCC(=O)N3CC[C@@H](C1)[C@@H]23` has a cytoprotection (ATP increase) of -1.58% [at 96.6 µM]. With `COc1ccc(N(C(C)C(=O)N/N=C/c2cc(Br)c(C)o2)S(C)(=O)=O)cc1` (centres undefined) the Potency was active: 0.891 µM. Molecule `CCC(=O)OCC(=O)[C@@]1(OC(=O)CC)[C@@H](C)C[C@@H]2[C@H]3CCC4=CC(=O)C=C[C@]4(C)[C@@]3(F)[C@@H](O)C[C@@]21C` has a cytoprotection (ATP increase) of -44.2%. For `Cc1cc(=O)c2cc(Cl)ccc2[nH]1`, the cytoprotection (ATP increase) was 37% [at 96.6 µM]. In the case of `O=C1c2c(O)cccc2Cc2cccc(O)c21`, the cytoprotection (ATP increase) was -30.8%. In the case of `COC(=O)C1=C(C)NC(C)=C(C(=O)OCCNCc2ccccc2)C1c1cccc([N+](=O)[O-])c1` (centres undefined), the cytoprotection (ATP increase) was -298%. With `CCc1ccc(C2c3[nH]c4ccccc4c3CCN2C(=O)c2cc(C)nn2C)cc1` (centres undefined) the cytoprotection (ATP increase) was 426% [at 10 µM]. `O=C1OCCN1C(=O)[C@H]1[C@H](c2ccc(F)cc2)C(c2ccc(F)cc2)=NN1c1ccc(Br)cc1` showed a cytoprotection (ATP increase) of -148% [at 40.3 µM]. `CCOC(=O)C1=NO[C@@]2(C=C(Br)C(=O)[C@H]3O[C@H]32)C1` showed a cytoprotection (ATP increase) of 40.9%. `O=C1OCCN1C(=O)[C@H]1[C@H](c2ccccc2)C(c2cccc(Cl)c2)=NN1c1ccccc1` gave a cytoprotection (ATP increase) of -45.5%. `CCOC(=S)SCc1cn2ccccc2n1` showed a cytoprotection (ATP increase) of 16.3%. In the case of `O=C(CSc1c2c(nc3ccc(Cl)cc13)CCCC2)N1CCN(C(=O)c2ccco2)CC1`, the Potency was active: 20 µM. `COC(=O)[C@@H](N)CSC/C=C(\C)CC/C=C(\C)CCC=C(C)C` showed a cytoprotection (ATP increase) of -26.7%. In the case of `CCCCC[C@H](O)/C=C/C=C\C/C=C\CCCCC(=O)O`, the cytoprotection (ATP increase) was -46.4%. For `CC(C)(C)Nc1oc(-c2ccccc2)nc1-c1ccc(C(F)(F)F)cc1`, the cytoprotection (ATP increase) was -37.5%. For `Cc1cc(NC(=O)CSc2nnc(Cn3c(=O)sc4ccccc43)n2-c2ccccc2C)no1`, the cytoprotection (ATP increase) was 273% [at 10 µM]. In the case of `O=[N+]([O-])c1ccc(Sc2n[nH]c(-c3ccc(Cl)cc3Cl)n2)nc1`, the Potency was active: 0.794 µM.
